No constants are given. Whether binding was seen depends on the method and setting. Binding seen in cells or lysates may run through a third protein. Binding calls can cover weak binding; strength is not graded here.
B1: Ubiquitin-specific protease 38 (enzyme, UniProt Q8BW70 1-1042)
chain: MDKILEGLVSSSHPLPLKRMIVRKVVEFAEHWLDEAQCEAMFDLTTRLILEGQDPFQRQVGHQVLEAYARYHRPEFESFFNKTFVLGLLQQGYHSVDRKDVAILDYIHNGLKLIMSCPSVLDLFSLLQVEVLRMVCERPEPVLCARLSDLLTDFVQCVPKGKLSVTFCQQLVRTIGHFQCVSTQEKELREYVSQVTKVSTLLQNIWKAEPSTLLPSLQEVFASISSTDASFEPSVALASLVQHIPLQMITVLIRSLTTDPNVKDASMTQALCRMIDWLSWPLAQHVDTWVIALLKGLAAVQKFTILIDVTLLKIELVFNRLWFPLVRPGALAVLSHMLLSFQHSPEAFHVIVPHIVNLVHSFRSDGLPSSTAFLVQLTELVHCMMYHYSGFPDLYEPILEAVKDFPKPSEEKIKLILNQSAWTSQSNALASCLSRLSGKSETGKTGLINLGNTCYMNSVLQALFMATEFRRQVLSLNLNGCNSLMKKLQHLFAFLAHTQREAYAPRIFFEASRPPWFTPRSQQDCSEYLRFLLDRLHEEEKILRVQSSHKPSEGLDCAETCLQEVTSKVAVPTESPGTGDSEKTLIEKMFGGKLRTHICCLNCGSTSHKVEAFTDLSLAFCPSPSVEDLSFQDTASLPSAQDDGLMQTSVADPEEEPVVYNPATAAFVCDSVVNQRVLGSPPVEFHCAESSSVPEESAKILISKDVPQNPGGESTTSVTDLLNYFLAPEVLTGENQYYCESCASLQNAEKTMQITEEPEYLILTLLRFSYDQKYHVRRKILDNVSLPLVLELPVKRTASFSSLSQSWSVDVDFTDINENLPKKLKPSGTEEAFCPKLVPYLLSSVVVHSGVSSESGHYYSYARNITGTESSYQMCPQSESLALAPSQSCLLGVESPNTVIEQDLENKEMSQEWFLFNDSRVTFTSFQSVQKITSRFPKDTAYVLLYKKQSRANGIDSDNPASGVWANGDPPLQKELMDAITKDNKLYLQEQELNARARALQAASASCSFRPNGFDDNDPPGSCGPTGGGGGGGFNTVGRLVF

Columns and labels:
[1] = molecular target: T1, Ubiquitin-specific protease 38 (mouse (endogenous in HL-1)) (UniProt Q8BW70); test: co-IP; endogenous proteins; lysates of HL-1 cells treated with Ang II (1 μM) for 48 h; incubated overnight at 4 °C with anti-USP38, anti-NF-κB or anti-IgG antibodies, magnetic beads, western blot
T1 sequence: B1 chain

[2] = molecular target: nuclear factor-kappa B (mouse (endogenous in HL-1)); test: as above

Row | Molecule | binding [1] | binding [2]
1 | nuclear factor-kappa B (mouse (endogenous in HL-1)) | binds | –
2 | B1 | – | binds

— article PMC10823351
